Some results were stated once for a whole list of compounds, not compound by compound.
System: SARS-CoV-2
Conditions: Table 2; SARS-CoV-2 viral replication, cell-based antiviral assay

## O=C(Nc1ccc([N+](=O)[O-])c(Cl)c1)c1cc(Cl)ccc1O [JMX0941]
  EC50: 1000 to 2000 nM
